The assay concerns the target T1, TDP-43 peptide 17 (aa 310–329) (UniProt Q13148).
T1 sequence (peptide): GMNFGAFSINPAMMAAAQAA
Description: ELISA; synthetic peptides (5 µg/mL in PBS, 10 mM EDTA) coupled through cysteine to maleimide-activated microplate wells, blocked with L-cysteine; 0.1 µg/mL recombinant protein added 1 h at 37 °C; biotinylated detection antibody, streptavidin-HRP, TMB, absorbance at 450 nm; both purified. For orientation: ELISA stands for enzyme-linked immunosorbent assay.

Chains of the proteins cited; added tags and fusions are not shown. Residues count along the entry.
UniProt P02768, residues 25-609: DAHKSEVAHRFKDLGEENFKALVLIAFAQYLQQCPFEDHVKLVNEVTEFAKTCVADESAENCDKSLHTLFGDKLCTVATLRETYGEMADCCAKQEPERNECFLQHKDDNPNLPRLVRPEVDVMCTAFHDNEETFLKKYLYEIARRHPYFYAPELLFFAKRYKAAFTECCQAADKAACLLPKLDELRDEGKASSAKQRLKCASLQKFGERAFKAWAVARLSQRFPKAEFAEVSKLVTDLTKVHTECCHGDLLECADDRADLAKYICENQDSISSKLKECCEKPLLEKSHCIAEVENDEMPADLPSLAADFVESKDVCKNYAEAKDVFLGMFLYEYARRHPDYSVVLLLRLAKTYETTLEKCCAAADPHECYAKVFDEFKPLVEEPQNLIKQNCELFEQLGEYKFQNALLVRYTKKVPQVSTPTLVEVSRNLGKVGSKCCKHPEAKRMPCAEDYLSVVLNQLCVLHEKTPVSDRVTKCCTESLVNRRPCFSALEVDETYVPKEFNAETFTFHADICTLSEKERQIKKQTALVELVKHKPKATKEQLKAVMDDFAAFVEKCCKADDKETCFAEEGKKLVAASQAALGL

These are yes or no findings as the source states them, for the method shown.

Data on 1 substance can be found in publication PMC8836581.

With “recombinant albumin (from UniProt P02768 25-609)”, the binding entry was “no binding (tested: 0.1 µg/mL)”.
